Where “and” joins values, the source holds several entries; their conditions need not be identical. Identical values can stand only once. About 22,000 (6.9%) of roughly 320,000 compounds were called active. Inconclusive means that the source gave no clear call. Such entries were picked first, then a sample of the others. Calls follow the shape of the dose curve; as a rule, active = well fitted inhibition curve with a large enough effect; inconclusive = small, poorly fitted or top-dose-only effect, or another doubt; inactive = no such curve, though single readings can be large or run the other way. Potencies beside an inconclusive call are fits to weak or partial responses and may not hold up.
Test: Primary qHTS for delayed death inhibitors of the malarial parasite plastid, 96 hour incubation
Details: P. falciparum luciferase reporter growth; series mostly up to 28.7 µM
In short: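 Luminescence readout: decreased luciferase signal marks inhibited growth of reporter-expressing P. falciparum in infected red cells (2% hematocrit, 0.05% parasitemia final), exposed to compound two generations (96 h, 37 C, 5% CO2).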
Potency is read from the fitted curve at half-maximal effect.

| Structure (SMILES) | Potency |
| --- | --- |
| CN(C(=O)c1ccco1)c1nnc(-c2ccc(F)cc2)s1 | inactive |
| COc1ccc(CC(=O)O/N=C(\N)Cc2cccc3ccccc23)cc1 | active: 11.7 µM |
| CCC(=O)Nc1ccc(S(=O)(=O)N2CCc3ccccc32)cc1 | inactive |
| O=C(Cn1c(=O)cnc2ccccc21)Nc1cccc(S(=O)(=O)N2CCCCC2)c1 | inconclusive: 11.7 µM [inhibitor, single point] |
| O=C(N/N=C/c1cc(Br)cc(Br)c1O)c1ccncc1 | inactive |
| CCCS(=O)(=O)N1CCCC(C(=O)NCCCN2CCCC2=O)C1 (stereo not drawn) | inconclusive: 8.28 µM [inhibitor, single point] |
| Cc1ccc(S(=O)(=O)CCC(=O)OCC(=O)NCCc2ccc(S(N)(=O)=O)cc2)cc1 | inconclusive: 18.5 µM [inhibitor, single point] |
| Clc1ccc(CNCCCSc2ncccn2)cc1 | inconclusive: 18.5 µM [inhibitor, single point] |
| CC1(C)CC(=O)C=C(c2ccc(I)cc2)C1 | inconclusive: 1.65 µM [inhibitor, full curve] |
| Cc1ccc(N2C(=O)c3ccccc3C2Nc2cccnc2)nc1 (stereo not drawn) | inactive |
| CCn1c(SCC(=O)NC(=O)Nc2ccc3c(c2)OCCO3)nnc1-c1cccs1 | inactive |
| CCOc1ccc(OCC)c(S(=O)(=O)N2CCC(C)CC2)c1 | inconclusive: 14.7 µM [inhibitor, single point] |
| C[C@@H]1CN(c2c(F)c(F)c3c(=O)c(C(=O)O)cn(C4CC4)c3c2F)C[C@H](C)N1 | inactive and inconclusive: 4.26 µM [inhibitor, partial curve] |
| CCc1nn2c(=O)cc(CSCC(=O)Nc3ccccc3Cl)nc2s1 | inconclusive: 18.5 µM [inhibitor, single point] |
| CCCCn1c2ccccc2c2cc(CC(N)=O)ccc21 | inconclusive: 11.7 µM [inhibitor, partial curve, poor fit] |
| N#C/C(=C\C=C\c1ccccc1[N+](=O)[O-])C(=O)NC1CCCCC1 | inconclusive: 11.7 µM [inhibitor, single point] |
| O=C(c1ccc(F)cc1)N1CCCC(c2ccccc2)C1 (stereo not drawn) | inconclusive: 18.5 µM [inhibitor, single point] |
| Cc1cc2cc(CCNC(=O)CC(C)(C)C)c(=O)[nH]c2cc1C | inconclusive: 14.7 µM [inhibitor, single point] |
| CN(C)C(CNc1ccc(S(C)(=O)=O)cc1[N+](=O)[O-])c1ccccc1 (stereo not drawn) | inactive |
| CC(C)C[C@H]1CN=C(Nc2ccccc2)N1CC1CCC(C(C)(C)C)CC1 (stereo partly drawn) | active: 7.38 µM |
| O=C(/C=C/c1ccccc1)Nc1cccc(C(=O)O)c1 | inconclusive: 11.7 µM [inhibitor, single point] |

| Structure (SMILES) | Potency |
| --- | --- |
| C=CCOc1ccc(CNc2nccs2)cc1OC | inconclusive: 2.33 µM [inhibitor, full curve] |
| Clc1cccc(OCCCCN2CCCCC2)c1 | inconclusive: 0.0329 µM [inhibitor, full curve, poor fit] |
| CSc1nnc(C)c(=O)[nH]1 | active: 14.7 µM |
| CCCCOc1ccc(NC(=O)CN2CCN(C(=O)OCC)CC2)cc1 | inconclusive: 10.4 µM [inhibitor, single point] |
| CCCS(=O)(=O)c1c(S(=O)(=O)CCC)c2c3ccccc3ccn2c1C(N)=O | inconclusive: 18.5 µM [inhibitor, single point] |
| COC(=O)c1ccccc1NC(=O)c1nc(S(=O)(=O)Cc2ccccc2)ncc1Cl | inconclusive: 18.5 µM [inhibitor, single point] |
| COc1ccc(Cl)cc1S(=O)(=O)N1CCN=C1C | inconclusive: 16.5 µM [inhibitor, single point] |
| O=C(Nc1ccc(F)cc1)C(c1ccccc1)N1CCN(CC(=O)N2CCCC2)CC1 (stereo not drawn) | inconclusive: 3.29 µM [inhibitor, single point] |
| CC(C)Oc1cccc(C(=O)C2CCCN(C(=O)c3ccoc3)C2)c1 (stereo not drawn) | inactive |
| O=C(O)CCc1nn2c3ccccc3nc2n(CCN2CCCCC2)c1=O | inconclusive: 13.1 µM [inhibitor, single point] |
| Cc1ccccc1N(CC(N)=O)S(C)(=O)=O | inconclusive: 2.94 µM [inhibitor, full curve, poor fit] |
| Cc1cc(C(=O)COC(=O)Cc2ccc(Br)cc2)c(C)n1C | inconclusive: 11.7 µM [inhibitor, partial curve, poor fit] |
| CC(C)C(NC(=O)c1ccc(C(C)(C)C)cc1)C(=O)Nc1ccc(N2CCOCC2)cc1 (stereo not drawn) | inconclusive: 10.4 µM [inhibitor, partial curve, poor fit] |
| CCCC(c1nnnn1CCOC)N1CCN(Cc2ccccc2)CC1 (stereo not drawn) | inconclusive: 10.4 µM [inhibitor, single point] |
| CCOc1cc2[nH]c(=S)n(CCN3CCCCC3CC)c(=O)c2cc1OCC (stereo not drawn) | inconclusive: 18.5 µM [inhibitor, single point] |
| O=C(Nc1ccncc1)c1cc(-c2cccc(Br)c2)nc2ccccc12 | active: 0.828 µM |
| N#Cc1ccc(-c2cccnc2)nc1SCc1ccc(Cl)c(Cl)c1 | inconclusive: 1.04 µM [inhibitor, partial curve, poor fit] |
| Cc1ccc(/C=N/NC(=O)CSc2nc3ccccc3[nH]2)o1 | inconclusive: 14.7 µM [inhibitor, single point] |
| CC(=O)[C@@H]1[C@@H](C(=O)c2ccccc2)[C@]2(C(=O)Nc3ccccc32)[C@H]2C=Cc3cc(F)ccc3N12 | inconclusive: 18.5 µM [inhibitor, single point] |
| COC(=O)C1CCCN1S(=O)(=O)c1ccc([N+](=O)[O-])cc1 (stereo not drawn) | inconclusive: 1.85 µM [inhibitor, partial curve, poor fit] |
| O=C(CSc1ncn[nH]1)Nc1ccc([N+](=O)[O-])cc1Br | inactive |
